These are yes or no findings as the source states them, for the method shown. In cells and extracts the contact can be indirect. A yes stands for co-enrichment or nearness to the bait. Other partners may have been found. Tags and fused reporters may be left off the sequences shown.

For the test, the target named is T1, HA-RNF128 (pCDH-HA-RNF128 lentivirus, TF-1 cells) (UniProt Q8TEB7).
T1 sequence: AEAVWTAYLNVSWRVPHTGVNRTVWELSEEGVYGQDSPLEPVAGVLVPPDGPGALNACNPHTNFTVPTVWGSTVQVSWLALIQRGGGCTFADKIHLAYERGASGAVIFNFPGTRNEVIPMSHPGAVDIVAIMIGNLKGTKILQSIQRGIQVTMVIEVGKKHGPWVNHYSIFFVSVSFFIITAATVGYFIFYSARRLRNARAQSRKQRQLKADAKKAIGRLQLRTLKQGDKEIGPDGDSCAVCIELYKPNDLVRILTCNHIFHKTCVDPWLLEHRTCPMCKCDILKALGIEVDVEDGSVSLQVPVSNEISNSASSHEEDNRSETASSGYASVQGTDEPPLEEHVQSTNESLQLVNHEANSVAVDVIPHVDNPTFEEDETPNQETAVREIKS
As to the kind of experiment: affinity purification with mass spectrometry; TF-1 cells infected with pCDH-HA-RNF128 or pCDH lentivirus; RIPA lysate on anti-HA agarose beads overnight at 4 °C; washed with 1 M NaCl RIPA buffer and PBS; eluate analysed by LC-MS/MS.

B1: IL-3 receptor subunit alpha (endogenous, TF-1 cells) (receptor, UniProt P26951 19-378)
chain: TKEDPNPPITNLRMKAKAQQLTWDLNRNVTDIECVKDADYSMPAVNNSYCQFGAISLCEVTNYTVRVANPPFSTWILFPENSGKPWAGAENLTCWIHDVDFLSCSWAVGPGAPADVQYDLYLNVANRRQQYECLHYKTDAQGTRIGCRFDDISRLSSGSQSSHILVRGRSAAFGIPCTDKFVVFSQIEILTPPNMTAKCNKTHSFMHWKMRSHFNRKFRYELQIQKRMQPVITEQVRDRTSFQLLNPGTYTVQIRARERVYEFLSAWSTPQRFECDQEEGANTRAWRTSLLIALGTLLALVCVFVICRRYLVMQRLFPRIPHMKDPIGDSFQNDKLVVWEAGKAGLEECLVTEVQVVQKT
B1: the binding entry is given as “binds”.

(Values after PMC11067302.)
